# Laboratory results from PubChem BioAssay AID504861 (Broad Institute, 2011).
# In all, about 1,200 compounds went through this assay and about 290 (24%) were called active. Roughly 3% stayed inconclusive and do not appear here.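 Rule for the calls: active = compounds lowering cell viability signal with fitted half-maximal concentration at most ten times their highest tested concentration; inconclusive = flat fit with 30 to 70% signal loss, or poor fit; inactive = the rest.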 The list shows a part of the results, in another mix than the full data. Measured potencies and affinities stand elsewhere.
# Experiment: HEK293T cell viability reduction, dose response, cytotoxicity control for LMP1 NF-kB inhibitor project, CellTiter-Glo luminescence, cherry-picks (AID 504861)
# Conditions: CellTiter-Glo ATP luminescence, 48 h; at 26 µM (top of the series)
row,SMILES,"activity change, negative = cytotoxicity"
1,O=c1[nH]c(Nc2nc3ccccc3o2)nc2c1CCCC2,inactive: 2.83%
2,COc1ccc(CNC(=O)COC(=O)[C@@H]2CCCN2C(=O)c2cccs2)cc1,inactive: -0.031%
3,O=C1c2ccccc2C(O)N1Cc1ccccc1 (stereo unspecified),inactive: -0.497%
4,CCCCCC(=O)N1CCN(c2ccc(C(C)=O)cc2F)CC1,inactive: -4.39%
5,O=C1CCCCC1Sc1nnc(-c2ccc3c(c2)OCO3)o1 (stereo unspecified),inactive: 6.75%
6,O=C(CN1C(=O)c2ccccc2S1(=O)=O)Nc1ncc(Cl)cc1Cl,inactive: 6.24%
7,COc1ccc(NC(=O)COC(=O)/C=C/c2ccc(OC)c(S(=O)(=O)N3CCOCC3)c2)cc1,inactive: 27.4%
8,CCOc1ccc(NC(=O)CCc2nnc3ccc(N4CCC5(CC4)OCCO5)nn23)cc1,inactive: 11.9%
9,COc1ccc(S(=O)(=O)NC(CC(=O)NCc2ccco2)C(C)C)cc1 (stereo unspecified),inactive: 7.05%
10,COCCNC(=O)NC12CC3(C)CC(C)(CC(C)(C3)C1)C2,inactive: 8.53%
11,COc1ccc(-c2csc3ncnc(Sc4nnnn4C)c23)cc1,inactive: 1.75%
12,CC(C)(C)n1nc(-c2ccc(Cl)cc2)c2c(N)ncnc21,inactive: 5.92%
13,Cc1ccnc(SCCn2c(N3CCN(c4ccccc4)CC3)nc3c2c(=O)[nH]c(=O)n3C)n1,inactive: 17.5%
14,COc1ccc(C(=O)CN(CCC(=O)O)S(=O)(=O)c2ccc([N+](=O)[O-])cc2)cc1,inactive: 11.7%
15,CC(=O)c1ccccc1OCC(=O)Nc1cccc(S(=O)(=O)N2CCCC2)c1,inactive: 11.5%
16,O=C(NCc1ccco1)C1CC(=O)N(c2cccc(Cl)c2)C1 (stereo unspecified),inactive: -0.584%
17,CC[C@]1(C(=O)OC)[C@H]2C(=O)N(Cc3ccccc3)C(=O)[C@H]2[C@H]2CN=C(SCc3ccc(C#N)cc3)N21,inactive: -4.07%
18,COC(=O)CN(c1ccccc1F)S(=O)(=O)c1ccc(C)cc1,inactive: 1.16%
19,CN(C)/C=C/C(=O)c1ccc2noc(-c3ccccc3)c2c1,inactive: 9.21%
20,NC(=O)c1ncn([C@@H]2O[C@H](CO)[C@@H](O)[C@H]2O)n1,inactive: 12.4%
21,O=C1/C(=C/c2cccnc2)SC(=S)N1Cc1ccco1,inactive: 5.5%
22,COc1ccc(-c2csc(Nc3cccc(C)n3)n2)cc1OC,inactive: 24.9%
23,Cc1cccc(-n2c(O)c(C=Nc3c(C)n(C)n(-c4ccccc4)c3=O)c3ccccc3c2=O)n1,inactive: 2%

row,SMILES,"activity change, negative = cytotoxicity"
1,O=C1C=Cc2cccc3ccc(O)c1c23,inactive: -9.9%
2,Fc1cccc(Cl)c1/C=N/n1c(-c2cccnc2)n[nH]c1=S,inactive: 6.12%
3,CN=C1S/C(=C\c2ccc(O)c(Br)c2)C(=O)N1C,inactive: 6.54%
4,Cn1cc(SCC(=O)NCC2CCCO2)c2ccccc21 (stereo unspecified),inactive: 8.72%
5,CS(=O)(=O)Nc1ccc(C2=NN(S(C)(=O)=O)C(c3ccccc3)C2)cc1 (stereo unspecified),inactive: -1.16%
6,Cc1cc(C)n2nc(CC(=O)NC3CCCCCC3)nc2n1,inactive: 8.73%
7,CCOC(=O)c1ccc(NC(=O)CSc2nc(N3CCOCC3)nc(N3CCOCC3)n2)cc1,inactive: -0.033%
8,O=C1C2CCCN2c2ccc(S(=O)(=O)N3CCOCC3)cc2N1Cc1ccccc1F (stereo unspecified),inactive: 8.51%
9,CCSc1nc2ccc(OC)cc2cc1C#N,inactive: 5.12%
10,CCC(Oc1ccccc1)C(=O)NC1CCSC1=O (stereo unspecified),inactive: 11.1%
11,c1cncc(CNc2ncnc3ccc(-c4ccoc4)cc23)c1,inactive: 3.52%
12,COc1ccc(CNC(=O)N2[C@H]3CC[C@@H]2C=C(c2ccc(F)cc2OCc2ccccc2)C3)cc1OC,inactive: 8.66%
13,C[C@]12CC[C@@H]3c4ccc(OS(=O)(=O)O)cc4CC[C@H]3[C@@H]1CCC2=O,inactive: 9.47%
14,COc1cc2c(CCNC(C)=O)c[nH]c2cc1Cl,inactive: 11.7%
15,CCCC(=O)C1=C(O)C(C(=O)OC)C(C)(C)CC1=Nc1ccncc1 (stereo unspecified),inactive: -1.96%
16,CC(C(=O)N=Nc1c(O)[nH]c2ccccc12)n1cnc2ccccc2c1=O (stereo unspecified),inactive: 1.48%
17,OCCCNc1nccc(-c2cc(Nc3cccc(Cl)c3)ncn2)n1,inactive: -9.76%
18,COc1cc(OC)cc(-c2c(C#Cc3ccsc3)c3cc(-c4cc(OC)c(OC)c(OC)c4)ccc3n2C)c1,inactive: 9.6%
19,COc1ccc(Nc2oc(COc3ccc(Cl)cc3)nc2C#N)cc1,inactive: 3%
20,O=c1c(O)c(-c2ccc(O)c(O)c2)oc2cc(O)cc(O)c12,inactive: -6.16%
21,Cc1ccnc(N/C=C(/NC(=O)c2ccccc2)C(=O)N/N=C\c2ccc(F)cc2)n1,inactive: 4.61%
22,COc1ccc(S(=O)(=O)N2CCC(C(=O)NC3CC3)CC2)cc1OC,inactive: 3.64%
23,CN(CCNC(=O)C1CCN(S(=O)(=O)N2CCOCC2)CC1)CCc1ccccc1,inactive: 0.046%

# Retrieved by compound from the list above:
row,SMILES,"activity change, negative = cytotoxicity"
15,CCCC(=O)C1=C(O)C(C(=O)OC)C(C)(C)CC1=Nc1ccncc1 (stereo unspecified),inactive: -1.96%
21,Cc1ccnc(N/C=C(/NC(=O)c2ccccc2)C(=O)N/N=C\c2ccc(F)cc2)n1,inactive: 4.61%
